Laboratory results reported in patent publication EP3820512B1, “IMMUNOMODULATING COMPOSITIONS COMPRISING OLIGOSACCHARIDE DERIVATIVES” (priority 2018, dated 2020).
Some entries share one result that the patent states for a list of compounds.

The chains behind the UniProt entries cited, without tags or fusion partners. Residues count along the entry.
UniProt O00206, 24-839: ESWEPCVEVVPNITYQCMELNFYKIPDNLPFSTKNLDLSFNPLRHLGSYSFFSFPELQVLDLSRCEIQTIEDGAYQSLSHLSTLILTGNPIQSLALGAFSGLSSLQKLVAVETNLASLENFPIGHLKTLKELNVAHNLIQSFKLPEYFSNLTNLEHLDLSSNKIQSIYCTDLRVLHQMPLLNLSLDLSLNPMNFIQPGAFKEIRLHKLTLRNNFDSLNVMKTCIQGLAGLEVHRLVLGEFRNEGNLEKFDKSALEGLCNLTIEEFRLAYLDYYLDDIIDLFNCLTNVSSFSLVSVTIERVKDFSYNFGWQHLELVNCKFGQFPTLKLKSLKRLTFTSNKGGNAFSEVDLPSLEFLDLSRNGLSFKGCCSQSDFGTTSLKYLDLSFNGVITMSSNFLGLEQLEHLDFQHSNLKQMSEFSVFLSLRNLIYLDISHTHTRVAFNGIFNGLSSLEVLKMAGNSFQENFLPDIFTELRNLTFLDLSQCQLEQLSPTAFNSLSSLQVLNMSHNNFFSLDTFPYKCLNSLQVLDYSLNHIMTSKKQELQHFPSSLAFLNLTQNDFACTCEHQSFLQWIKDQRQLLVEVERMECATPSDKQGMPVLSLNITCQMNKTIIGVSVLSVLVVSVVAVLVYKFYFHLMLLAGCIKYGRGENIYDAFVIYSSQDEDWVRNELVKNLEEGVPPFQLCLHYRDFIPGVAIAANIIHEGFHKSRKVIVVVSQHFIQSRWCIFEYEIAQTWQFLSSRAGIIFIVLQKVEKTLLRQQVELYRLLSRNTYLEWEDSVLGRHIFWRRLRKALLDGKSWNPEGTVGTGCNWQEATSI

Target: TLR4 (Homo sapiens, UniProt O00206)
Assay: TLR4 inhibitory and activating activity in THP-1 cells at low and high concentrations
Type: cell-based
Parameters: endogenous in cells; host or cells: THP-1 (human monocytic) cells
Conditions: summary in words, as shown in Table-1 (FIG. 1)

SMILES | TLR4 agonist activity
CC(=O)NC1[C@H](Oc2cccc3sc(NC(=O)C(C)(C)C)nc23)O[C@H](CO)[C@@H](O)[C@@H]1O (single isomer, unassigned) [Compound 23] | TLR4 agonists
CC(=O)NC1[C@H](Oc2ccc(N3CCN(C(C)=O)CC3)cc2)O[C@H](CO)[C@@H](O)[C@@H]1O (single isomer, unassigned) [Compound 28] | TLR4 agonists
CC(=O)N[C@H]1[C@H](Oc2ccc3nonc3c2)O[C@H](CO)[C@@H](O)[C@H]1O (stereo in doubt) [Compound 17, N-((2S,3R,4S,5S,6R)-2-(benzo[c][1,2,5]oxadiazol-5-yloxy)-4,5-dihydroxy-6-(hydroxymethyl)tetrahydro-2H-pyran-3-yl)acetamide] | TLR4 agonists
CC(=O)N[C@H]1[C@H](Oc2ccc3c(C)cc(=O)oc3c2)O[C@H](COS(=O)(=O)O)[C@@H](O)[C@@H]1O [Compound 30] | TLR4 agonists
COc1ccc(O[C@@H]2O[C@H](CO)[C@@H](O)[C@H](O)[C@H]2NC(C)=O)cc1 [Compound 38] | TLR4 agonists
CC(=O)N[C@H]1[C@H](Oc2ccc(Cl)cc2)O[C@H](CO)[C@@H](O)[C@@H]1O [Compound 39] | TLR4 agonists
CC(=O)N[C@H]1[C@H](Oc2ccccc2O)O[C@H](CO)[C@@H](O)[C@@H]1O [Compound 40] | TLR4 agonists
